According to PubChem BioAssay AID330 (DTP/NCI, 2004):
The list is a part of this screen's results and no random one: it gathers tests that were run many times, whatever their T/C, doses with no T/C, and many T/C values between a quarter and a half above the control. Further doses and runs are listed elsewhere. T/C: endpoint of the treated group in % of that of the vehicle group. Some entries give survivors of the animals treated and no T/C: the source holds a T/C of zero for them, seemingly a mark for toxic or unscored doses. Some doses without a T/C left all or most animals alive at the check, yet need not have been tolerated: survival well below the control is almost never listed, so the zero probably covers shortened survival too. Counts of survivors are from the toxicity check (mostly the fifth day) where no day follows; animals may have died later. Schedules are NCI's codes, taken here to give the interval after Q, in days (D) or hours (H), and the number of doses after X. Additions like (4×) say how often a value occurs here. Some entries were tested several times; their values stand side by side, smallest first. Where survival is the endpoint, the PubChem record calls one and a half times the control and up active, and a quarter to a half above the control has no call in these data; cut-offs in other NCI protocols can differ. Some T/C values are followed by the survivors on the day toxicity was checked, most often the fifth; where none is given, no animal had died by that day.

Tested on: P388 leukemia ip, CD2F1 mice, survival T/C
Experiment: NCI In Vivo Anticancer Drug Screen. Data for tumor model P388 Leukemia (intraperitoneal) in CD2F1 (CDF1) mice
Details: T/C endpoint: median survival time, higher T/C = longer survival
[1] = dose: 100.0 mg/kg/injection, schedule: Q01DX009 (ip), vehicle: saline with Tween-80
[2] = dose: 200.0 mg/kg/injection, schedule: Q01DX009 (ip), vehicle: saline with Tween-80
[3] = dose: 240.0 mg/kg/injection, schedule: Q01DX005 (ip), vehicle: saline with Tween-80
[4] = dose: 240.0 mg/kg/injection, schedule: Q01DX005 (ip), vehicle: Klucel (hydroxypropylcellulose) (HPC)
[5] = dose: 200.0 mg/kg/injection, schedule: Q01DX005 (ip), vehicle: Klucel (hydroxypropylcellulose) (HPC)
[6] = dose: 60.0 mg/kg/injection, schedule: Q01DX005 (ip), vehicle: Klucel (hydroxypropylcellulose) (HPC)
[7] = dose: 120.0 mg/kg/injection, schedule: Q01DX005 (ip), vehicle: Klucel (hydroxypropylcellulose) (HPC)
[8] = dose: 100.0 mg/kg/injection, schedule: Q01DX009 (ip), vehicle: water
[9] = dose: 100.0 mg/kg/injection, schedule: Q01DX005 (ip), vehicle: Klucel (hydroxypropylcellulose) (HPC)

O=C1c2ccccc2C(=Cc2cccnc2)c2ccccc21
survivor count (dose: 50.0 mg/kg/injection, schedule: Q01DX009 (ip), vehicle: saline with Tween-80): 6 of 6 | survivor count [1]: 6 of 6 | survivor count [2]: 6 of 6

COc1ccc(Cc2nnc(NN)[nH]c2=O)cc1OC
survivor count [3]: 1 of 6

CNC(=S)SC1=NS(=O)(=O)c2ccccc2N1
T/C [4]: 134 % of control (2×)

Cc1nc2ccccc2c(=O)n1/N=C/c1ccc(Cl)cc1Cl
survivor count (dose: 200.0 mg/kg/injection, schedule: Q01DX005 (ip), vehicle: saline with Tween-80): 6 of 6

CON/C=C(C#N)/C=C/C=Nc1ccc(S(=O)(=O)N=C(N)N)cc1
survivor count [1]: 6 of 6 | survivor count [2]: 5 of 6

O=C1CSC(c2ccccc2F)N1c1ncccn1 (centres undefined)
T/C [5]: 135 % of control | survivor count (dose: 400.0 mg/kg/injection, schedule: Q01DX005 (ip), vehicle: Klucel (hydroxypropylcellulose) (HPC)): 0 of 6

COC(=O)OC(C#N)c1cccc([N+](=O)[O-])c1 (centres undefined)
survivor count (dose: 50.0 mg/kg/injection, schedule: Q01DX009 (ip), vehicle: saline): 6 of 6 | survivor count (dose: 200.0 mg/kg/injection, schedule: Q01DX009 (ip), vehicle: saline): 4 of 6

C1CC[C@@]2([C@]34CCCC[C@H]3O4)O[C@H]2C1
survivor count [6]: 6 of 6 | survivor count [7]: 6 of 6

NC(N)=N/N=C\c1ccnc2ccccc12
survivor count (dose: 120.0 mg/kg/injection, schedule: Q01DX005 (ip), vehicle: saline): 0 of 6 | survivor count (dose: 240.0 mg/kg/injection, schedule: Q01DX005 (ip), vehicle: saline): 0 of 6

CC(C)C(O)(C(=O)OCC1=CC[N+]2(C)CCC(O)C12)C(C)O (centres undefined)
survivor count (dose: 400.0 mg/kg/injection, schedule: Q01DX005 (ip), vehicle: water): 1 of 3

CCN(CC)C(=O)N1CC1
survivor count (dose: 400.0 mg/kg/injection, schedule: Q04DX002 (ip), vehicle: saline): 0 of 6

CCc1nc(N)nc(N)c1-c1ccc(Cl)c([N+](=O)[O-])c1
T/C (dose: 1.56 mg/kg/injection, schedule: Q01DX009 (ip), vehicle: distilled water + Tween-80): 125 % of control [5 of 6 alive] | T/C (dose: 6.25 mg/kg/injection, schedule: Q01DX009 (ip), vehicle: distilled water + Tween-80): 147 % of control | survivor count (dose: 12.5 mg/kg/injection, schedule: Q01DX009 (ip), vehicle: distilled water + Tween-80): 6 of 6 | survivor count (dose: 25.0 mg/kg/injection, schedule: Q01DX009 (ip), vehicle: distilled water + Tween-80): 6 of 6 | survivor count (dose: 50.0 mg/kg/injection, schedule: Q01DX009 (ip), vehicle: distilled water + Tween-80): 4 of 6

C[C@@H]1C(=O)O[C@H]2[C@H]1CC[C@@]1(C)C[C@@H](I)C(=O)[C@@H](C)[C@H]21
survivor count [4]: 0 of 6

COc1cccc2c1C(=O)c1c(O)c3c(c(O)c1C2=O)C[C@@](O)(/C(C)=N/NC(=O)c1ccc(-c2ccccc2)cc1)C[C@@H]3OC1CC(N)C(O)C(C)O1 (some centres undefined)
T/C (dose: 0.25 mg/kg/injection, schedule: Q01DX009 (ip), vehicle: water): 134 % of control | T/C (dose: 0.5 mg/kg/injection, schedule: Q01DX009 (ip), vehicle: water): 138 % of control | T/C (dose: 1.0 mg/kg/injection, schedule: Q01DX009 (ip), vehicle: water): 146 % of control | T/C (dose: 3.13 mg/kg/injection, schedule: Q01DX001 (ip), vehicle: water): 145 % of control | T/C (dose: 4.0 mg/kg/injection, schedule: Q01DX009 (ip), vehicle: water): 133 % of control | T/C (dose: 12.0 mg/kg/injection, schedule: Q04DX003 (ip), vehicle: water): 145 % of control | survivor count (dose: 12.5 mg/kg/injection, schedule: Q01DX009 (ip), vehicle: water): 5 of 6 | survivor count (dose: 16.0 mg/kg/injection, schedule: Q01DX009 (ip), vehicle: water): 6 of 6 (2×) | survivor count (dose: 25.0 mg/kg/injection, schedule: Q01DX009 (ip), vehicle: water): 5 of 6 | T/C (dose: 48.0 mg/kg/injection, schedule: Q04DX003 (ip), vehicle: water): 135 % of control | survivor count (dose: 50.0 mg/kg/injection, schedule: Q01DX001 (ip), vehicle: water): 5 of 6 | survivor count (dose: 50.0 mg/kg/injection, schedule: Q01DX009 (ip), vehicle: water): 3 of 6 | survivor count (dose: 100.0 mg/kg/injection, schedule: Q01DX001 (ip), vehicle: water): 0 of 6 | survivor count [8]: 1 of 6

NNC(=O)c1ccccc1N
survivor count [8]: 2 of 6 | survivor count (dose: 200.0 mg/kg/injection, schedule: Q01DX009 (ip), vehicle: water): 0 of 6

CCOCc1nc(N)nc(N)c1-c1cccc(Cl)c1
survivor count [3]: 3 of 6

Nc1ccc(Nc2ccncc2)cc1
survivor count (dose: 50.0 mg/kg/injection, schedule: Q01DX009 (ip), vehicle: Klucel (hydroxypropylcellulose) (HPC)): 3 of 6 | survivor count (dose: 100.0 mg/kg/injection, schedule: Q01DX009 (ip), vehicle: Klucel (hydroxypropylcellulose) (HPC)): 0 of 6 | survivor count (dose: 200.0 mg/kg/injection, schedule: Q01DX009 (ip), vehicle: Klucel (hydroxypropylcellulose) (HPC)): 0 of 6

C1=NCc2ccsc2-n2cccc21
survivor count [9]: 0 of 6 | survivor count [5]: 0 of 6

C[Si]1(C)CC[Si](C)(C)OS(=O)(=O)O1
survivor count (dose: 110.0 mg/kg/injection, schedule: Q01DX005 (ip), vehicle: Klucel (hydroxypropylcellulose) (HPC)): 3 of 5 | survivor count (dose: 212.5 mg/kg/injection, schedule: Q01DX005 (ip), vehicle: Klucel (hydroxypropylcellulose) (HPC)): 2 of 5 | survivor count (dose: 425.0 mg/kg/injection, schedule: Q01DX005 (ip), vehicle: Klucel (hydroxypropylcellulose) (HPC)): 0 of 5 | survivor count (dose: 850.0 mg/kg/injection, schedule: Q01DX005 (ip), vehicle: Klucel (hydroxypropylcellulose) (HPC)): 0 of 5

CNC(=O)OCc1c(COC(=O)NC)c2n(c1C)-c1ccc(OC)cc1CCC2
T/C (dose: 1.87 mg/kg/injection, schedule: Q01DX005 (ip), vehicle: Klucel (hydroxypropylcellulose) (HPC)): 125 % of control | T/C (dose: 3.75 mg/kg/injection, schedule: Q01DX005 (ip), vehicle: Klucel (hydroxypropylcellulose) (HPC)): 135 % of control | T/C (dose: 7.5 mg/kg/injection, schedule: Q01DX005 (ip), vehicle: Klucel (hydroxypropylcellulose) (HPC)): 147 % of control | T/C (dose: 15.0 mg/kg/injection, schedule: Q01DX005 (ip), vehicle: Klucel (hydroxypropylcellulose) (HPC)): 144 % of control | survivor count (dose: 30.0 mg/kg/injection, schedule: Q01DX005 (ip), vehicle: Klucel (hydroxypropylcellulose) (HPC)): 4 of 6 | survivor count [6]: 4 of 6 | survivor count [7]: 0 of 6 | survivor count [4]: 0 of 6

CC(=O)[O][Bi]([c]1ccccc1)[c]1ccccc1
T/C (dose: 6.25 mg/kg/injection, schedule: Q01DX005 (ip), vehicle: Klucel (hydroxypropylcellulose) (HPC)): 126 % of control | survivor count (dose: 12.5 mg/kg/injection, schedule: Q01DX005 (ip), vehicle: Klucel (hydroxypropylcellulose) (HPC)): 1 of 6 | survivor count (dose: 25.0 mg/kg/injection, schedule: Q01DX005 (ip), vehicle: Klucel (hydroxypropylcellulose) (HPC)): 0 of 6 and 3 of 6 | survivor count [9]: 0 of 6 | survivor count [5]: 0 of 6

Nc1ncnc2c1ccn2C1OC2COP(=O)(O)OC2C1O (centres undefined)
T/C (dose: 4.0 mg/kg/injection, schedule: Q01DX009 (ip), vehicle: saline): 136 % of control
